Experimental findings from paper PMC1414084 are described below.

These are yes or no findings as the source states them, for the method shown. For some of these results: In cells and extracts the contact can be indirect. Some entries that bind do so weakly or less than the wild type.

Assay [1] deals with PH0385, MorR-like ATPase (Pyrococcus horikoshii OT3) (UniProt O58122). The assay is described as follows: two-hybrid; mammalian two-hybrid; bait fused to the Gal4 DNA-binding domain (BIND), prey to the VP16 transcriptional activation domain (ACT); luciferase reporter; cultured mammalian cells, 37°C; positive from 3 times the background activity (level 1), the selected set is level 2 (>=5 to <10 times) and level 3 (>=10 times). On the technique in general: A reporter such as luciferase makes a cellular process visible.

Assay [2] concerns the target T1, PH1354, SNO like protein, biotinylated, in vitro translated (Pyrococcus horikoshii OT3) (UniProt O59079).
T1 sequence (chain, biotinylated lysine (Transcend Biotinylated lysine-tRNA)): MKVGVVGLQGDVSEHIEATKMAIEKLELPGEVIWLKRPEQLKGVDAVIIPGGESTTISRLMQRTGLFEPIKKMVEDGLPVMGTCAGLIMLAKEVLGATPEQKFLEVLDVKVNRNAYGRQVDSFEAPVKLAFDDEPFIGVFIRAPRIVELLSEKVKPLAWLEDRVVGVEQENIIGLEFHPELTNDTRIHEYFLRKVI
The assay is described as follows: pull-down; in vitro pull-down; biotinylated driver and ^35S-labeled protein, both in vitro translated in reticulocyte lysate, pre-incubated 15 minutes at 37°C (non-heat) or 75°C (heat), mixed 1 h at 25°C, Dynabeads Streptavidin, washed with TBS-T, autoradiography.

Assay [3] has as its target T2, PH0795, hypothetical protein, biotinylated, in vitro translated (Pyrococcus horikoshii OT3) (UniProt O58525).
T2 sequence (chain, biotinylated lysine (Transcend Biotinylated lysine-tRNA)): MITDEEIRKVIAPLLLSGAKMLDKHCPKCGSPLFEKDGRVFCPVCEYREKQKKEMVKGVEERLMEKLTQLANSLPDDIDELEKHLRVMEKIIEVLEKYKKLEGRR
The description is as above.

The target of assay [4] is PH1589, deoxycytidylate deaminase (Pyrococcus horikoshii OT3) (UniProt O59259). The assay is described as follows: two-hybrid; mammalian two-hybrid; bait fused to the Gal4 DNA-binding domain (BIND), prey to the VP16 transcriptional activation domain (ACT); luciferase reporter; cultured mammalian cells, 37°C; positive from 3 times the background activity (level 1), the selected set is level 2 (>=5 to <10 times) and level 3 (>=10 times).

For assay [5], the target named is T3, PH0245, 20S proteasome subunit, biotinylated, in vitro translated (Pyrococcus horikoshii OT3) (UniProt O57983).
T3 sequence (chain, biotinylated lysine (Transcend Biotinylated lysine-tRNA)): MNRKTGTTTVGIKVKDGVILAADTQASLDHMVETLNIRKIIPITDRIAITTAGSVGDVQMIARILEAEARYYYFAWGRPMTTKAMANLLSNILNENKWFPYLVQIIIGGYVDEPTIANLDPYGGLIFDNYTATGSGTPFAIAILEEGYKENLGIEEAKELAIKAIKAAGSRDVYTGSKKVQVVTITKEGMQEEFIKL
The assay is described as follows: pull-down; in vitro pull-down; biotinylated driver and ^35S-labeled protein, both in vitro translated in reticulocyte lysate, pre-incubated 15 minutes at 37°C (non-heat) or 75°C (heat), mixed 1 h at 25°C, Dynabeads Streptavidin, washed with TBS-T, autoradiography.

Assay [6] deals with PH1884, triosephosphate isomerase (Pyrococcus horikoshii OT3) (UniProt O59536). The assay is described as follows: two-hybrid; mammalian two-hybrid; bait fused to the Gal4 DNA-binding domain (BIND), prey to the VP16 transcriptional activation domain (ACT); luciferase reporter; cultured mammalian cells, 37°C; positive from 3 times the background activity (level 1), the selected set is level 2 (>=5 to <10 times) and level 3 (>=10 times).

The target in assay [7] is T4, PH1645, ortholog of ADP-specific phosphofructokinase (Pyrococcus horikoshii OT3) (UniProt O59355).
T4 sequence: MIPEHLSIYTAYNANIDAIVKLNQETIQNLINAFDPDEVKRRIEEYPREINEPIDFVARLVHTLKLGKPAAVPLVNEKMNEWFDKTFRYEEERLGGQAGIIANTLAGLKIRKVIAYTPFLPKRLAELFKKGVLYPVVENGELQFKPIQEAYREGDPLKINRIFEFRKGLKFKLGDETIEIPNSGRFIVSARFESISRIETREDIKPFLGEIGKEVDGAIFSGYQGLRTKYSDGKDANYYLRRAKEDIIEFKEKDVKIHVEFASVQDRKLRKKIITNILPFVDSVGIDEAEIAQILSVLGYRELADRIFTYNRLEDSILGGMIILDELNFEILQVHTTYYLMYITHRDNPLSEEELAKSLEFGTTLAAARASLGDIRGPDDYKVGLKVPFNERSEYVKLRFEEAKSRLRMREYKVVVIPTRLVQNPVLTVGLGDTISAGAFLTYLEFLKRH
The description is as above.

B1: PH0385, MorR-like ATPase (protein, UniProt O58122 1-312)
chain: MVEMDGRKFLKLLKEEVHKAVVGKDDVIELLAIALLAEGHVMIEGVPGVAKTTIAKSFAQVLGLKFSRIQLTPDLLPADILGTVYYDQSDGLWKIKKGPIFANVVLADEINRAQPKTQSALLEAMQERQVTIEGRTFPLEKPFMVIATKNPIEFEGVYNLPEAQVDRFMLNIKIGYPTREEEVEMLRKKDRGELGEVGRIFSREQIVRMINEVKRVKTSEEVLHYLYEIVNETRKDERLIVGASPRASEHLLYASKAKAFLEGRDYVIPDDVKFLAVPVLAHRLLIKAEHEIEGIKGEDIVREILERVEVPI
Turning to B1, the binding result in assay [1] is recorded as “binds”.

B2: PH1355, SNZ like protein, ^35S-labeled, in vitro translated (protein, UniProt O59080 1-335)
chain: MDKLKIIMEKGTERLKRGFAKMVKGGVIMDVTNAEQARIAEEAGAVAVMALHKVPADIRKAGGVARMAPVEKIQEIMDAVTIPVMAKCRIGHEAEARILEALGVDMIDESEVLTPADPFFHIYKKKFTAPFVCGARNLGEAVRRIWEGAAMIRTKGEAGTGNIIEAVRHVRLVNENIRLIQRMTDEEIYGVAEKFAEPYLRLAFSVKEISGLPKRVLENEPIYEGFTYREIVEDIYKILLEIKKLGRLPVVNFAAGGVATPADAALMMAMGMDGVFVGSGIFKSSNPPKMARAIVEAVNHWDEPDVLAEISREIGEPMRGQAIEELQVRMEERGI
modifications: L-[^35S] methionine
Regarding B2, in assay [2], the binding entry is given as “binds”.

B3: PH0017, ^35S-labeled, in vitro translated (protein, UniProt O57762 1-549)
chain: MAQLAGQPILILPEGTQRYVGRDAQRMNILAARIIAETVRTTLGPKGMDKMLVDSLGDIVITNDGATILDEMDIQHPAAKMMVEVAKTQDKEAGDGTTTAVVIAGELLKKAEELLDQNIHPSIIIKGYTLASQKAQEILDSIAKEVKPDDEEVLLKAAMTAITGKAAEEEREYLAKLAVEAVKLVAEEKDGKLKVDIDNIKLEKKEGGAVRDTRLIRGVVIDKEVVHPGMPKRIENAKIALINDALEVKETETDAEIRITSPEQLQAFLEQEEKMLKEMVDKIKEVGANVVFVQKGIDDLAQHYLAKYGILAVRRVKKSDMEKLAKATGAKIVTNIRDLTPEDLGEAELVEERKVAGENMIFVEGCKNPKAVTILIRGGTEHVVDEVERALEDAIKVVKDILEDGKIIAGGGASEIELSIKLDEYAKEVGGKEQLAIEAFAEALKVIPRTLAENAGLDPIETLVKVIAAHKEKGQTIGIDVYEGEPADMMERGVIEPVRVKKQAIKSASEAAIMILRIDDVIAASKLEKEKEGEKGGGSEEFSGSSDLD
modifications: L-[^35S] methionine
Consider B3, for which, in assay [3], the binding entry is “binds”.

B4: PH1589, deoxycytidylate deaminase (protein, UniProt O59259 1-182)
chain: MKVEIVLDKEKAEKIKKIRPTKDEYFMLIAKLVSLRATCPRLRVGAVAVKDGYILATGYNGAPRNMDHCIDVGCIMVDGHCHRAVHAEQNVIAMAARKGISLEGATLYVTHFPCDTCLKLLINAGIKEIVYEEMYPNEVTEMLLKEAQEKGLIKIRQFKLSRERVKEFLEELFPEFCMEKND
For B4, the binding entry in assay [4] was “binds”.

B5: PH1553, 20S proteasome subunit, ^35S-labeled, in vitro translated (protein, UniProt O59219 1-260)
chain: MAFVPPQAGYDRAITVFSPDGRLFQVNYAREAVKRGATAVGVKCNEGVVLAVEKRITSRLIEPESYEKIFQIDDHIAAASSGIIADARVLVNRARLEAQIHRLTYGEPAPLAVIVKKICDLKQMHTQYGGVRPFGAALLMAGVNEKPELYETDPSGAYFAWKAVAIGSGRNTAMAIFEEKYKDDMSLEEAIKLAIFALAKTMEKPSAENIEVAIITVKDKKFRKLSREEIEKYLNEVMKEVEEEEVKEKEEDYSELDSHY
modifications: L-[^35S] methionine
In the case of B5, in assay [5], the binding entry is recorded as “binds”.

B6: PH1884, triosephosphate isomerase (protein, UniProt O59536 1-228)
chain: MKLDEPIIAINFKTYIEATGKRALEIAKAAERVYKETGVTIVVAPQLVDLRMIAENVEIPVFAQHIDPIKPGSHTGHVLPEAVKEAGAVGTLLNHSENRMILADLEAAISRAKEVGLITMVCSNNPAVSAAVAALEPDYVAVEPPELIGTGIPVSKAKPEVITNTVELVRKVNPKVKVLCGAGISTGEDVRKAIELGTVGVLLASGVTKAKDPEKAIRDLVSGIIGKD
B6: the binding entry in assay [6] was “binds”.

B7: PH1022, ortholog of mannose-1-phosphate guanylyltransferase (protein, UniProt O58775 1-416)
chain: MNKMKAVILAGGFGTRLRPISSTRPKPMVPVLGKPNLQYILEALEKVKEIDEIILSVHYMRGEIREFIQEKMRDYPKDIRFVNDPMPLETGGALKNVEEYVSDDFLVIYGDVFTNFDYSELIEAHKKNDGLITVALTKVYDPERFGVVITDEEGKIVEFEEKPRKPKTNLVDAGIYMVNKDVLKEIPKNKEIYFEREILPKFVNQGLVYGYKMPKQYYWVDLGTPEDFFYAHQIALDELSKENGYMILGENVEIPDDVEVQGPVYIDDNAKIGHGVKIKAYTYIGPNTIIEDKAYFKRSILLGNDIIKERAELKDAILGEGVVVGKDVIIKENAVIGDYAKIYDNLVIYGAKVLPWKKVEEYEAYIKIKLDPTKVRPGQYPDHCPLGLPECIYKKFKAIAGEKPPCDECIENQWLF
Consider B7, for which the binding result in assay [7] is “binds”.
